Source: US20250382287A1, “PHARMACEUTICALLY ACCEPTABLE SALT AND CRYSTAL FORM OF NITROGEN-CONTAINING BRIDGE HETEROCYCLIC DERIVATIVE, AND METHOD FOR PREPARING SAME” (JIANGSU HENGRUI PHARMACEUTICALS CO., LTD., priority 2022, published 2025)
This continues a long series; more values of the same kind are listed elsewhere.

Test: Long-term/accelerated stability (sealed, 25° C./60% RH and 40° C./75% RH)
[1] = 25° C., 60% RH, sealed, 1 month
[2] = 25° C., 60% RH, sealed, 2 months
[3] = 40° C., 75% RH, sealed, 1 month
[4] = 40° C., 75% RH, sealed, 2 months
[5] = 40° C., 75% RH, sealed, 3 months
[6] = 40° C., 75% RH, sealed, 6 months

Row | SMILES | Salt form [1] | Salt form [2] | Salt form [3] | Salt form [4] | Salt form [5] | Salt form [6] | Salt form (Initial) | Salt form (25° C., 60% RH, sealed, 3 months) | Salt form (25° C., 60% RH, sealed, 6 months)
1 | CCO[C@H]1C[C@H]2CC[C@@](c3ccc(C(=O)O)cc3)(C1)N2Cc1c(OC)cc(C)c2[nH]ccc12.Cl [crystal form II of the hydrochloride, 4-((1S,3S,5R)-3-ethoxy-8-((5-methoxy-7-methyl-1H-indol-4-yl)methyl)-8-azabicyclo[3.2.1]octan-1-yl)benzoic acid-hydrochloride] | No change | No change | No change | No change | No change | No change | Crystal form II |  | 
2 | CCO[C@H]1C[C@H]2CC[C@@](c3ccc(C(=O)O)cc3)(C1)N2Cc1c(OC)cc(C)c2[nH]ccc12.O=P(O)(O)O [crystal form II of the phosphate, 4-((1S,3S,5R)-3-ethoxy-8-((5-methoxy-7-methyl-1H-indol-4-yl)methyl)-8-azabicyclo[3.2.1]octan-1-yl)benzoic acid-phosphate] | No change | No change | No change | No change |  |  | Crystal form II |  | 
3 | CCO[C@H]1C[C@H]2CC[C@@](c3ccc(C(=O)O)cc3)(C1)N2Cc1c(OC)cc(C)c2[nH]ccc12.Cl [crystal form III of the hydrochloride, 4-((1S,3S,5R)-3-ethoxy-8-((5-methoxy-7-methyl-1H-indol-4-yl)methyl)-8-azabicyclo[3.2.1]octan-1-yl)benzoic acid-hydrochloride] | No change | No change | No change | No change | No change | No change | Crystal form III | No change | No change
